Binding data for 1 substance are collected here from doi:10.1101/2024.02.25.581915.

Sequences of proteins named here, by UniProt entry; tags and fusion partners are left off. A change or cut given only in a name is not applied to a line headed by its entry.
UniProt P60896: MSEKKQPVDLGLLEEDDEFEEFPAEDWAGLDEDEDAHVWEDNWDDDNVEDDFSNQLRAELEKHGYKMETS
UniProt P67775: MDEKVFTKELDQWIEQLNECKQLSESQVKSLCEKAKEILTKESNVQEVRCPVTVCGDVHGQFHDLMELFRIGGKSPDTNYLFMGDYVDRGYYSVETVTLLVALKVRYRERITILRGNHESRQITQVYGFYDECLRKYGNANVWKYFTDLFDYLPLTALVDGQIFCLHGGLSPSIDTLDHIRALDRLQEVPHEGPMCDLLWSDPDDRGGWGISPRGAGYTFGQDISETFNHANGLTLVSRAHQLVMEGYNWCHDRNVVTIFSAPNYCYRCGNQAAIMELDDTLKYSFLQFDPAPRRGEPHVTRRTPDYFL

This test addresses Flag-tagged DSS1 (pcDNA5-StFLAG-DSS1, inducible in HEK293 Flp-In T-REx cells) (human) (UniProt P60896). Kind of test: affinity purification with mass spectrometry.

No constants are given. Whether binding was seen depends on the method and setting. Binding seen in cells or lysates may run through a third protein. These calls come from enrichment with a bait or labelling near it, and not all partners need be listed.

Regarding “PP2A-C (phosphatase module subunit of INTAC) (from UniProt P67775)”, the binding result is “binds”.
